Reference: PMC10163288
The other results are listed elsewhere or left out.

B1: il2ra_site1_2b5i_normal_mot_HHH_b1_00432_000000039_0001_1_18_H_._HHH_b1_02735_0001_0000300013_0000001_0_af2pred_dldesign_0_af2pred (protein)
chain: SSSSSSDEEIEAAEDLALQALKEKDKEKRKELLEEALRLAQKGKDAKLVAQIQELLERLKSSSSS
B2: il2ra_site2_2erj_sap_24_mot_35d2dc24e2c4431f89e6f806b163ecf8_0001_af2_000000103_0001_35_49_H_._HHH_b1_00970_af2_0001_0000300014_0000001_0_0001_af2pred_0001_af2p … (protein)
chain: SSSSSDEEEIKKRVEELLEEAEKIKNIREALKVLEEADELALKIDDEELLQEVDEVLQKLSSSSS
B3: il2ra_site1_1z92_sap_21_mot_HHH_b1_06433_af2_000000071_0001_43_55_H_._1be45adfb33e20f6866665fef51ac9fc_0001_1_af2_0001_0000300007_0000001_0_0001_af2pred_0001_af … (protein)
chain: TKVSVEEAREEAGGDPEAAVEILLRIIEEQTDAPPRNAIIFLRILARKLGDPEIEEILEELQRRR
B4: il2ra_site1_1z92_sap_10_mot_ae822554cddc87a57d04fcdb10ee4bf1_0001_1_000000099_0001_1_12_H_._HHH_b2_05903_0001_0000100002_0000001_0_0001_af2pred_0001_af2pred_1 (protein)
chain: SSSSSEENTARIIVEILVKLAGLSEEQEEELERLLKELLERGVDLLEISRRLDELALKLESSSSS
B5: il2ra_site1_3nfp_sap_18_mot_HHH_b2_02028_000000257_0001_1_17_H_._HHH_b2_00444_0001_0000100001_0000001_0_0001 (protein)
chain: SSSSSRFEELLRLDRELWEARRRGDEELARELLELLKELAEENNDKILKRLLKQWEENLKSSSSS
B6: il2ra_site1_3nfp_normal_mot_ems_3hC_1630_0002_af2_000000235_0001_1_19_H_._HEEHE_3092_0001_0000100023_0000001_0 (protein)
chain: SAEKLAEFLARSLKKDAGVESVEVEVRDQRLSVTFKGNDEAVEYAARLVRFFAEQAGVPVEIETE
B7: il2ra_site2_3nfp_sap_27_mot_HHH_b1_07198_000000084_0001_1_18_H_._311205a5f7018ed2e03f51fd3ffd5b95_0001_0001_0000200033_0000001_0_0001 (protein)
chain: PVEELVREVAEILGDPRFEEVVEERLERLKKEGNEEALKYIEAALALIVRHNDPRLAQTLLELLD
B8: il2ra_site1_2b5i_normal_mot_HHH_b2_04910_000000118_0001_1_19_H_._HHH_b1_02561_af2_0001_0000500020_0000001_0_af2pred_dldesign_0_af2pred (protein)
chain: SSSSSPVGEELRRLLEEAERLKKAGKDEEAKRLLEEALRLAREANLPRAARFIELALEQLESSSS
B9: il2ra_site1_1z92_sap_17_mot_HHH_b1_05516_af2_000000202_0001_21_38_H_._HHH_b1_03395_0001_0000300017_0000001_0_0001 (protein)
chain: SSSSDKQLEYLEEQIRRALERGSKRLAQRLIEMVRRIAEDADDDEAKRVAEELQQILEELSSSSS
B10: il2ra_site1_1z92_sap_32_mot_HHH_b1_01261_af2_000000008_0001_1_19_H_._HHH_b1_04539_0001_0000800054_0000001_0_0001 (protein)
chain: DKTNIKDVLWLVKLHPPEKVLRRLEKSAERSDDPSWRRASEILEEALRRANGDPEEVERLLEELR
B11: il2ra_site2_3nfp_normal_mot_HHH_b2_07946_000000046_0001_20_36_H_._HHH_b1_00607_af2_0001_0000200042_0000001_0 (protein)
chain: SSSSSDEEEVEKLEQEIEKAREEGDEEAVRELLKRVSDLAYKLGDFELFARVADLLLELLSSSSS
B12: il2ra_site2_3nfp_normal_mot_HHH_b2_05281_000000198_0001_39_56_H_._HHH_b1_08050_af2_0001_0000600029_0000001_0 (protein)
chain: SSSSSEELEELLKRLEELLKEGDEEEFRRLLAEIVHLAFKLNDPRIFYLVAELAFEFHQRESSSS
B13: il2ra_site2_3nfp_normal_mot_HHH_b2_06150_000000217_0001_39_53_H_._HHH_b1_00332_0001_0000300020_0000001_0 (protein)
chain: SSSSDEEELEQLLEELRRLVEENDEERARRLIARITHLAFELRDSRVFYLLAELLYLLVRLSSSS
B14: il2ra_site1_2b5i_sap_15_mot_HHH_b2_04274_000000042_0001_1_19_H_._HHH_b2_02498_0001_0000200018_0000001_0_0001 (protein)
chain: SSSSSEKTRRALELFREADEADRRGNPEEAQELLEEALRVAEEGGSRALFRMIRAALEQVSSSSS
B15: il2ra_site1_3nfp_normal_mot_HHH_b1_06045_af2_000000189_0001_3_17_H_._a9b97edc58e4c613f9eb791f71029db3_0001_1_0001_0000300028_0000001_0_af2pred_0001_af2pred_1_sw … (protein)
chain: SLEEKLEELLKRDVEEAIRLVERVVRELLEEGDPQEASKVLELAIRLAAELDDPELSEALFELAR
B16: il2ra_site2_3nfp_sap_18_mot_HHH_b1_04429_af2_000000130_0001_1_18_H_._HHH_b2_06954_0001_0001000014_0000001_0_0001 (protein)
chain: PEVSTILMKLKEEDPNNELAFELFALLAEAWHRGDEELEERLKEAAELLEEGDPERAEELLERLK
B17: il2ra_site1_2b5i_normal_mot_HHH_b1_00095_000000042_0001_1_14_H_._HHH_b1_08235_0001_0000200009_0000001_0_af2pred_dldesign_0_af2pred (protein)
chain: SSSSLKEKLNELQRIADRLAELGAEEEFDEVYDLALEFSRTKDESLLERARALLARAEAESSSSS
B18: il2ra_site2_3nfp_normal_mot_HHH_b2_06150_000000217_0001_39_53_H_._HHH_b2_05784_af2_0001_0000100004_0000001_0 (protein)
chain: SSSSDRERVEELLERAEEKFERGDEEEVRRLLAEATKLAYENRDSELFFLVAEVLFRLAQNSSSS
B19: il2ra_site2_3nfp_normal_mot_HHH_b1_05437_000000005_0001_40_57_H_._HHH_b1_08057_af2_0001_0000100005_0000001_0 (protein)
chain: SSSSSDELEELLEQIEELLKEGDKEEAKKLLRRVTHLAYERRDFEIFYEVAELLYLLEKLSSSSS

biological target: il2ra, P01589; assay: yeast display titration

Apparent Kd, inactive:
B1 no binding seen
B2 no binding seen
B3 no binding seen
B4 no binding seen
B5 no binding seen
B6 no binding seen
B7 no binding seen
B8 no binding seen
B9 no binding seen
B10 no binding seen
B11 no binding seen
B12 no binding seen
B13 no binding seen
B14 no binding seen
B15 no binding seen
B16 no binding seen
B17 no binding seen
B18 no binding seen
B19 no binding seen

As a working copy, some entries already given.
Apparent Kd, inactive:
B2 no binding seen
B3 no binding seen
